Measurements taken from the supplement of paper PMC9454738.
Counter-ions that a name gives are not always drawn. ± gives the standard deviation of the averaged measurements. The list shows a part of the results. This data set is noisy: repeats of one test often differ as much as different tests do.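 Assays used MDA-MB-231 triple-negative breast cancer cells and their brain-metastatic line MDA-MB-231BRM, stably carrying empty vector, full-length GLI1 or truncated tGLI1. After 48 h, viability was read with CellTiter-Blue and normalized to 1% DMSO vehicle. tGLI1 selectivity meant viability fell 20% more in tGLI1 cells than in vector and GLI1 cells.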

What was measured:
Experiment in all cases: cell viability relative to vehicle (DMSO) control (fraction); higher = more viable cells (less growth inhibition)
Conditions in all cases: treatment time 48 h
MDA-MB-231 GLI1 = system: MDA-MB-231 GLI1
MDA-MB-231 Vector = system: MDA-MB-231 Vector
MDA-MB-231 tGLI1 = system: MDA-MB-231 tGLI1
MDA-MB-231BRM GLI1 = system: MDA-MB-231BRM GLI1
MDA-MB-231BRM Vector = system: MDA-MB-231BRM Vector
MDA-MB-231BRM tGLI1 = system: MDA-MB-231BRM tGLI1

| SMILES | cell viability (MDA-MB-231 GLI1; 0.05 µM) | cell viability (MDA-MB-231 GLI1; 0.5 µM) | cell viability (MDA-MB-231 GLI1; 5 µM) | cell viability (MDA-MB-231 Vector; 0.05 µM) | cell viability (MDA-MB-231 Vector; 0.5 µM) | cell viability (MDA-MB-231 Vector; 5 µM) | cell viability (MDA-MB-231 tGLI1; 0.05 µM) | cell viability (MDA-MB-231 tGLI1; 0.5 µM) | cell viability (MDA-MB-231 tGLI1; 5 µM) | cell viability (MDA-MB-231BRM GLI1; 0.05 µM) | cell viability (MDA-MB-231BRM GLI1; 0.5 µM) | cell viability (MDA-MB-231BRM GLI1; 5 µM) | cell viability (MDA-MB-231BRM Vector; 0.05 µM) | cell viability (MDA-MB-231BRM Vector; 0.5 µM) | cell viability (MDA-MB-231BRM Vector; 5 µM) | cell viability (MDA-MB-231BRM tGLI1; 0.05 µM) | cell viability (MDA-MB-231BRM tGLI1; 0.5 µM) | cell viability (MDA-MB-231BRM tGLI1; 5 µM) |
| --- | --- | --- | --- | --- | --- | --- | --- | --- | --- | --- | --- | --- | --- | --- | --- | --- | --- | --- |
| CC(C)(O)CC(=O)NCCn1ccc2ncnc(Nc3ccc(Oc4cccc(C(F)(F)F)c4)c(Cl)c3)c21 | 1.18 | 1.19 | 0.955 | 1.23 | 1.16 | 0.757 | 1.4 | 1.14 | 0.968 | 0.948 | 0.987 | 0.656 | 1.05 | 0.948 | 0.578 | 1.04 | 0.972 | 0.602 |
| COc1cc2ncnc(Nc3ccc(O)c(Br)c3)c2cc1OC | 0.586 | 1.1 | 0.598 | 1.08 | 1.17 | 0.773 | 0.878 | 1.23 | 0.78 | 0.977 | 0.913 | 0.863 | 1.07 | 1 | 0.869 | 1.02 | 0.946 | 0.914 |
| COc1ccccc1-c1cc(Nc2cccc(CS(N)(=O)=O)c2)ncn1 | 2.29 | 3.16 | 1.03 | 1.37 | 1.26 | 0.66 | 1.33 | 1.58 | 0.792 | 0.837 | 0.753 | 0.669 | 0.931 | 0.871 | 0.764 | 1.23 | 1.11 | 1.06 |
| CC[C@@]1(O)C(=O)OCc2c1cc1n(c2=O)Cc2cc3c(CN(C)C)c(O)ccc3nc2-1 [Topotecan HCl] | 0.861 | 0.408 | -0.206 | 0.534 | 0.212 | 0.264 | 0.707 | 0.365 | -0.316 | 1.18 | 1.03 | 0.697 | 1.19 | 1.05 | 0.758 | 1.24 | 1.08 | 0.793 |
| Nc1ncnc2c1c(-c1cccc(OCc3ccccc3)c1)cn2C1CC(CN2CCCC2)C1 (centres undefined) | 1.27 | 1.5 | -0.062 | 1.42 | 1.1 | 0.318 | 1.27 | 1.37 | -0.0636 | 0.932 | 0.996 | 0.966 | 0.986 | 0.931 | 0.986 | 0.903 | 0.938 | 0.84 |
| O=C1NC(=O)[C@@H](c2cn3c4c(cccc24)CCC3)[C@@H]1c1c[nH]c2ccccc12 [Tivantinib (ARQ 197)] | 1.31 | 0.431 | 0.063 | 1.25 | 0.578 | 0.127 | 1.37 | 0.141 | 0.0903 | 1.05 | 1.22 | 0.919 | 1.09 | 1.24 | 0.906 | 1.07 | 1.2 | 0.791 |
| CNC(=O)c1cc(Oc2ccc(NC(=O)Nc3ccc(Cl)c(C(F)(F)F)c3)c(F)c2)ccn1 [Regorafenib (BAY 73-4506)] | 1.15 ± 0.16 | 0.926 ± 0.17 | 0.595 ± 0.02 | 1.19 ± 0.14 | 0.859 ± 0.18 | 0.422 ± 0.0043 | 0.987 ± 0.18 | 0.887 ± 0.11 | 0.44 ± 0.073 | 1.03 ± 0.045 | 1.03 ± 0.037 | 0.714 ± 0.032 | 0.968 ± 0.047 | 0.985 ± 0.019 | 0.849 ± 0.019 | 1.016 ± 0.0059 | 0.988 ± 0.075 | 0.803 ± 0.037 |
| COc1cc(Nc2ncc(F)c(Nc3ccc4c(n3)NC(=O)C(C)(C)O4)n2)cc(OC)c1OC | 1.34 | 1.26 | 0.469 | 1.77 | 0.587 | 0.367 | 1.25 | 1.29 | 0.373 | 1.1 | 0.993 | 0.997 | 1.19 | 0.952 | 1.12 | 0.651 | 1.01 | 0.927 |
| Nc1ncnc2c1c(-c1cnc3[nH]ccc3c1)nn2C1CCCC1 | 1.07 | 0.433 | 0.0199 | 0.987 | 0.284 | 0.0403 | 1.33 | 0.437 | -0.0041 | 0.921 | 0.957 | 0.642 | 1.05 | 1 | 0.626 | 1.09 | 0.942 | 0.596 |
| Cc1nc(Nc2cnn(C3CCNCC3)c2)nc2c1N(C)C(=O)c1cc3ccccc3cc1N2C | 1.17 | 1.28 | 0.417 | 1.39 | 1.25 | 0.43 | 1.34 | 1.53 | 0.522 | 0.948 | 0.898 | 0.836 | 0.997 | 0.968 | 0.826 | 0.989 | 0.897 | 0.831 |
| Cc1ccc(S(=O)(=O)/C=C/C#N)cc1 | 1.08 | 1.42 | 0.149 | 1.14 | 1.43 | 0.815 | 1.17 | 1.39 | 0.164 | 1.08 | 0.923 | 0.786 | 1.08 | 0.991 | 0.874 | 1.06 | 0.909 | 0.755 |
| Cn1c(Nc2ccc(C(F)(F)F)cc2)nc2cc(Oc3ccnc(-c4ncc(C(F)(F)F)[nH]4)c3)ccc21 | 1.11 | 0.973 | 0.777 | 1.4 | 0.716 | 0.599 | 0.935 | 0.783 | 0.711 | 1.11 | 0.999 | 0.566 | 1.17 | 0.971 | 0.672 | 1.03 | 1.01 | 0.587 |
| CCOC(=O)[C@H](CCc1ccccc1)N[C@H]1CCc2ccccc2N(CC(=O)O)C1=O [Benazepril hydrochloride] | 1.16 | 1.14 | 1.02 | 1.37 | 1.09 | 1.1 | 1.07 | 1.14 | 1.26 | 1.08 | 1.04 | 1.01 | 1.06 | 1 | 0.996 | 1.07 | 1.02 | 1.06 |
| Cn1cnc(N)c2ncnc1-2 [3-Methyladenine] | 1.28 | 1.01 | 0.987 | 1 | 1.05 | 0.83 | 1.15 | 1.01 | 1.14 | 0.974 | 1.03 | 1.09 | 0.991 | 0.959 | 1.02 | 1 | 0.996 | 1.01 |
| COc1cc(CCc2cc(NC(=O)c3ccc(N4CC(C)NC(C)C4)cc3)n[nH]2)cc(OC)c1 (centres undefined) | 1.19 | 1.23 | 0.562 | 1.28 | 1.45 | 0.585 | 1.3 | 1.13 | 0.53 | 1.07 | 0.97 | 0.777 | 0.97 | 1.01 | 0.523 | 1.06 | 1.04 | 0.851 |
| CNC(=O)c1ccc(N2C(=S)N(c3ccc(C#N)c(C(F)(F)F)c3)C(=O)C2(C)C)cc1F [MDV3100 (Enzalutamide)] | 1.22 | 1.1 | 1.1 | 0.896 | 1.19 | 1.08 | 1.12 | 1.12 | 0.99 | 1.09 | 1.03 | 0.94 | 0.997 | 0.998 | 0.963 | 0.961 | 1.01 | 0.985 |
| CC(C)NC[C@@H](C(=O)N1CCN(c2ncnc3c2[C@H](C)C[C@H]3O)CC1)c1ccc(Cl)cc1 | 1.26 | 1.06 | 0.937 | 1.26 | 1.09 | 0.88 | 1.26 | 1.11 | 1.09 | 0.989 | 0.94 | 1.02 | 0.957 | 1.07 | 0.57 | 0.99 | 0.994 | 1.02 |
| COc1ccc(C(=O)Nc2sc3c(c2C(N)=O)CCCC3)cc1OC | 1.21 | 1.85 | 1.2 | 0.754 | 0.712 | 0.597 | 0.69 | 0.738 | 0.726 | 0.508 | 0.441 | 0.375 | 0.516 | 0.432 | 0.378 | 0.685 | 0.594 | 0.654 |

Reprinted at random: 2 entries already listed.

| SMILES | cell viability (MDA-MB-231 GLI1; 0.05 µM) | cell viability (MDA-MB-231 GLI1; 0.5 µM) | cell viability (MDA-MB-231 GLI1; 5 µM) | cell viability (MDA-MB-231 Vector; 0.05 µM) | cell viability (MDA-MB-231 Vector; 0.5 µM) | cell viability (MDA-MB-231 Vector; 5 µM) | cell viability (MDA-MB-231 tGLI1; 0.05 µM) | cell viability (MDA-MB-231 tGLI1; 0.5 µM) | cell viability (MDA-MB-231 tGLI1; 5 µM) | cell viability (MDA-MB-231BRM GLI1; 0.05 µM) | cell viability (MDA-MB-231BRM GLI1; 0.5 µM) | cell viability (MDA-MB-231BRM GLI1; 5 µM) | cell viability (MDA-MB-231BRM Vector; 0.05 µM) | cell viability (MDA-MB-231BRM Vector; 0.5 µM) | cell viability (MDA-MB-231BRM Vector; 5 µM) | cell viability (MDA-MB-231BRM tGLI1; 0.05 µM) | cell viability (MDA-MB-231BRM tGLI1; 0.5 µM) | cell viability (MDA-MB-231BRM tGLI1; 5 µM) |
| --- | --- | --- | --- | --- | --- | --- | --- | --- | --- | --- | --- | --- | --- | --- | --- | --- | --- | --- |
| Cn1cnc(N)c2ncnc1-2 [3-Methyladenine] | 1.28 | 1.01 | 0.987 | 1 | 1.05 | 0.83 | 1.15 | 1.01 | 1.14 | 0.974 | 1.03 | 1.09 | 0.991 | 0.959 | 1.02 | 1 | 0.996 | 1.01 |
| COc1ccc(C(=O)Nc2sc3c(c2C(N)=O)CCCC3)cc1OC | 1.21 | 1.85 | 1.2 | 0.754 | 0.712 | 0.597 | 0.69 | 0.738 | 0.726 | 0.508 | 0.441 | 0.375 | 0.516 | 0.432 | 0.378 | 0.685 | 0.594 | 0.654 |
